This is an account of results in paper PMC6700475.

Sequences of proteins named here, by UniProt entry; tags and fusion partners are left off.
UniProt Q15554: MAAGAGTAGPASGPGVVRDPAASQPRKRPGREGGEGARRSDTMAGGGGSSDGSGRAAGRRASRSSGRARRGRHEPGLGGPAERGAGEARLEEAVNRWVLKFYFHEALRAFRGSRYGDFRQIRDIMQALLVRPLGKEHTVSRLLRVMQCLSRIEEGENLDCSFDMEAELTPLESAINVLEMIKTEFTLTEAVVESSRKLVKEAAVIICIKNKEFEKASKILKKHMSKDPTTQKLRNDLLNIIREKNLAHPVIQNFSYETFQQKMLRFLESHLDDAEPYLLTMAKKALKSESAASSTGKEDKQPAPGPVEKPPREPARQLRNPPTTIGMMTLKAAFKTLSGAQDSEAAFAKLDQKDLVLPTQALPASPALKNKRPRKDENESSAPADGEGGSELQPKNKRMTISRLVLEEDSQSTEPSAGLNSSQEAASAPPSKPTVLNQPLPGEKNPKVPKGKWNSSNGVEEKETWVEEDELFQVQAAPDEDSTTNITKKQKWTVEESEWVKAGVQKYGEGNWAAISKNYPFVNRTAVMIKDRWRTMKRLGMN
UniProt Q96AP0: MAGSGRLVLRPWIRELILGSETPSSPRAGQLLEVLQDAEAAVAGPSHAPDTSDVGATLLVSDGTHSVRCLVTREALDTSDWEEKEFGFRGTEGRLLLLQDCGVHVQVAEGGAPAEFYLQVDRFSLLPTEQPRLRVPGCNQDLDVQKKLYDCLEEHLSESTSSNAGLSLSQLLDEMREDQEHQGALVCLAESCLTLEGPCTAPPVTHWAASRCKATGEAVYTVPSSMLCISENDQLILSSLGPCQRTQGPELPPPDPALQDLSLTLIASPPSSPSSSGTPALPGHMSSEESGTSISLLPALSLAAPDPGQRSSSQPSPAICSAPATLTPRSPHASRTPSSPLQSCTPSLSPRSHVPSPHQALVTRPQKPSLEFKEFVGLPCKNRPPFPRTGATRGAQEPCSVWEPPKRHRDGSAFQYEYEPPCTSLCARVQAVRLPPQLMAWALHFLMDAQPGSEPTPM
UniProt P06733: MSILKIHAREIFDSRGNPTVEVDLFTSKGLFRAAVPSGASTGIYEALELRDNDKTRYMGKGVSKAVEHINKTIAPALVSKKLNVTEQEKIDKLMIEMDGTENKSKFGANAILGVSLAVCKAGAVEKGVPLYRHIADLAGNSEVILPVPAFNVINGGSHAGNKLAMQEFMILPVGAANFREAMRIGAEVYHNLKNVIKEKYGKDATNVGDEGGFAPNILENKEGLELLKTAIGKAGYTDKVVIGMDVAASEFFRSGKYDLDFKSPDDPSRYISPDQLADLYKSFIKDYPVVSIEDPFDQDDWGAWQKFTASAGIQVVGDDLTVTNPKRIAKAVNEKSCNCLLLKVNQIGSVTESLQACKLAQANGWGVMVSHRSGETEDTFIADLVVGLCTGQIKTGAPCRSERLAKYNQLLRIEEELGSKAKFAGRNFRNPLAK
UniProt P04406: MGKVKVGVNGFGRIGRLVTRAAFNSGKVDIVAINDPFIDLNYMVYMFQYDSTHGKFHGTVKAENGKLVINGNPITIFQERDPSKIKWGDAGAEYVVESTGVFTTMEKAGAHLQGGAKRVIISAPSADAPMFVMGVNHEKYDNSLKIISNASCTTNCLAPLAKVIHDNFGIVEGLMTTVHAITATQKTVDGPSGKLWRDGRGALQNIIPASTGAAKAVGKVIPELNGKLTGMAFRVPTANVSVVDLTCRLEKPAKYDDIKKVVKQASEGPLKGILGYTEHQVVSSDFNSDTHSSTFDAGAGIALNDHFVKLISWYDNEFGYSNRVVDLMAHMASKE
UniProt P14618: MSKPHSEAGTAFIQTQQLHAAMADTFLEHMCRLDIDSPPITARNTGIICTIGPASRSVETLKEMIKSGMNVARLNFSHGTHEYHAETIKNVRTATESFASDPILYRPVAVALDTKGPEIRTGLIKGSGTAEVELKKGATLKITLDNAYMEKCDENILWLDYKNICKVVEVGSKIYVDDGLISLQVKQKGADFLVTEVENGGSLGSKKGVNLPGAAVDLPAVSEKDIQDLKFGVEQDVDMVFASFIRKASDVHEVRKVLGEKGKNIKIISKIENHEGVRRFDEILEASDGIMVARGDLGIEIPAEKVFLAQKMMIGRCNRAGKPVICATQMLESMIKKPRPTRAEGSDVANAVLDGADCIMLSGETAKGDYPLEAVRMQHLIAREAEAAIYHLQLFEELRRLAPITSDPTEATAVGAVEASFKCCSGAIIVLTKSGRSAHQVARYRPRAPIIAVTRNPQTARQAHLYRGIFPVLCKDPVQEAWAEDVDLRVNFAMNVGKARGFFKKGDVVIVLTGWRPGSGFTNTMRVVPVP

B1: 5′-exonuclease Apollo (DCLRE1B) (protein, UniProt Q9H816 1-532)
chain: MNGVLIPHTPIAVDFWSLRRAGTARLFFLSHMHSDHTVGLSSTWARPLYCSPITAHLLHRHLQVSKQWIQALEVGESHVLPLDEIGQETMTVTLLDANHCPGSVMFLFEGYFGTILYTGDFRYTPSMLKEPALTLGKQIHTLYLDNTNCNPALVLPSRQEAAHQIVQLIRKHPQHNIKIGLYSLGKESLLEQLALEFQTWVVLSPRRLELVQLLGLADVFTVEEKAGRIHAVDHMEICHSNMLRWNQTHPTIAILPTSRKIHSSHPDIHVIPYSDHSSYSELRAFVAALKPCQVVPIVSRRPCGGFQDSLSPRISVPLIPDSVQQYMSSSSRKPSLLWLLERRLKRPRTQGVVFESPEESADQSQADRDSKKAKKEKLSPWPADLEKQPSHHPLRIKKQLFPDLYSKEWNKAVPFCESQKRVTMLTAPLGFSVHLRSTDEEFISQKTREEIGLGSPLVPMGDDDGGPEATGNQSAWMGHGSPLSHSSKGTPLLATEFRGLALKYLLTPVNFFQAGYSSRRFDQQVEKYHKPC
B2: TIN2 (protein, UniProt Q9BSI4 1-451)
chain: MATPLVAGPAALRFAAAASWQVVRGRCVEHFPRVLEFLRSLRAVAPGLVRYRHHERLCMGLKAKVVVELILQGRPWAQVLKALNHHFPESGPIVRDPKATKQDLRKILEAQETFYQQVKQLSEAPVDLASKLQELEQEYGEPFLAAMEKLLFEYLCQLEKALPTPQAQQLQDVLSWMQPGVSITSSLAWRQYGVDMGWLLPECSVTDSVNLAEPMEQNPPQQQRLALHNPLPKAKPGTHLPQGPSSRTHPEPLAGRHFNLAPLGRRRVQSQWASTRGGHKERPTVMLFPFRNLGSPTQVISKPESKEEHAIYTADLAMGTRAASTGKSKSPCQTLGGRALKENPVDLPATEQKENCLDCYMDPLRLSLLPPRARKPVCPPSLCSSVITIGDLVLDSDEEENGQGEGKESLENYQKTKFDTLIPTLCEYLPPSGHGAIPVSSCDCRDSSRPL
B3: ALDOA (protein, UniProt P04075 1-364)
chain: MPYQYPALTPEQKKELSDIAHRIVAPGKGILAADESTGSIAKRLQSIGTENTEENRRFYRQLLLTADDRVNPCIGGVILFHETLYQKADDGRPFPQVIKSKGGVVGIKVDKGVVPLAGTNGETTTQGLDGLSERCAQYKKDGADFAKWRCVLKIGEHTPSALAIMENANVLARYASICQQNGIVPIVEPEILPDGDHDLKRCQYVTEKVLAAVYKALSDHHIYLEGTLLKPNMVTPGHACTQKFSHEEIAMATVTALRRTVPPAVTGITFLSGGQSEEEASINLNAINKCPLLKPWALTFSYGRALQASALKAWGGKKENLKAAQEEYVKRALANSLACQGKYTPSGQAGAAASESLFVSNHAY
B4: POT1 (protein, UniProt Q9NUX5 1-634)
chain: MSLVPATNYIYTPLNQLKGGTIVNVYGVVKFFKPPYLSKGTDYCSVVTIVDQTNVKLTCLLFSGNYEALPIIYKNGDIVRFHRLKIQVYKKETQGITSSGFASLTFEGTLGAPIIPRTSSKYFNFTTEDHKMVEALRVWASTHMSPSWTLLKLCDVQPMQYFDLTCQLLGKAEVDGASFLLKVWDGTRTPFPSWRVLIQDLVLEGDLSHIHRLQNLTIDILVYDNHVHVARSLKVGSFLRIYSLHTKLQSMNSENQTMLSLEFHLHGGTSYGRGIRVLPESNSDVDQLKKDLESANLTANQHSDVICQSEPDDSFPSSGSVSLYEVERCQQLSATILTDHQYLERTPLCAILKQKAPQQYRIRAKLRSYKPRRLFQSVKLHCPKCHLLQEVPHEGDLDIIFQDGATKTPDVKLQNTSLYDSKIWTTKNQKGRKVAVHFVKNNGILPLSNECLLLIEGGTLSEICKLSNKFNSVIPVRSGHEDLELLDLSAPFLIQGTIHHYGCKQCSSLRSIQNLNSLVDKTSWIPSSVAEALGIVPLQYVFVMTFTLDDGTGVLEAYLMDSDKFFQIPASEVLMDDDLQKSVDMIMDMFCPPGIKIDAYPWLECFIKSYNVTNGTDNQICYQIFDTTVAEDVI
B5: RAP1 (protein, UniProt Q9NYB0 1-399)
chain: MAEAMDLGKDPNGPTHSSTLFVRDDGSSMSFYVRPSPAKRRLSTLILHGGGTVCRVQEPGAVLLAQPGEALAEASGDFISTQYILDCVERNERLELEAYRLGPASAADTGSEAKPGALAEGAAEPEPQRHAGRIAFTDADDVAILTYVKENARSPSSVTGNALWKAMEKSSLTQHSWQSLKDRYLKHLRGQEHKYLLGDAPVSPSSQKLKRKAEEDPEAADSGEPQNKRTPDLPEEEYVKEEIQENEEAVKKMLVEATREFEEVVVDESPPDFEIHITMCDDDPPTPEEDSETQPDEEEEEEEEKVSQPEVGAAIKIIRQLMEKFNLDLSTVTQAFLKNSGELEATSAFLASGQRADGYPIWSRQDDIDLQKDDEDTREALVKKFGAQNVARRIEFRKK

These are yes or no findings as the source states them, for the method shown. Binding seen in cells or lysates may run through a third protein. These calls come from enrichment with a bait or labelling near it, and not all partners need be listed. For part of these data: A no says only that the protein was not detected with the bait.

In one assay the target is TRF2 (human (endogenous in HCT116)) (UniProt Q15554). Nature of the assay: affinity purification with mass spectrometry; TRF2 immunoprecipitates of HCT116 cells grown 1 week in 5 mM glucose with 10 nM CRT0063465 (treated condition); LC-MS/MS of gel bands, Mascot and Scaffold.
TPP1 (from UniProt Q96AP0 1-458): the binding entry is given as “binds”.

For B1, the binding entry is listed as “binds”.

In the case of B2, the binding entry was “binds”.

The next assay shares this target. The experiment in a line: affinity purification with mass spectrometry; TRF2 immunoprecipitates of HCT116 cells grown 1 week in 5 mM glucose, vehicle (untreated condition); LC-MS/MS of gel bands, Mascot and Scaffold; the glycolysis proteins were also quantified after 10 nM CRT0063465.
With ENO1 (from UniProt P06733 1-434), the binding entry was “binds”.

In the case of GAPDH (from UniProt P04406 1-335), the binding result is given as “binds”.

For PGI (from UniProt P06744 1-558), the binding result is “no binding”.

On to PKM (from UniProt P14618 1-531), for which the binding result is recorded as “binds”.

On to TPP1 (from UniProt Q96AP0 1-458), for which the binding result was “no binding (only cells not treated with CRT0063465)”.

Another assay shares this target. The assay is described as above. This is another data set of the same source.
As for B3, the binding entry is recorded as “binds”.

Take B4: the binding result was “binds”.

Regarding B5, the binding entry is “binds”.

For the molecule B2, the binding result was “no binding (only cells not treated with CRT0063465)”.
